Experimental data from patent US20160256535A1, “HEXAPEPTIDE AND USES THEREOF” (priority 2013, published 2016).

Tests used:
Assay in all cases: Determination of platinum in culture medium and cell pellet by atomic absorption spectrophotometry
Format in all cases: cell-based, human
Conditions in all cases: 92 μM, 3 hours
A2780 = tested on: A2780
Protocol: (§1) The cells to be examined, after the incubation period, were harvested, washed twice in buffered solution (PBS) and treated with 50 μl of 35% HNO3 for 16 hours. The platinum (Pt) contained in the culture medium or in the cell pellet was determined by spectrophotometer at atomic absorption (Analyst 800, Perkin-Elmer, Norwalk, Conn.) using the following criteria: temperature of pretreatment, 1300° C., temperature of atomizing 2200° C. 0.015 μg of palladium were used (palladium has been used for the modification of the matrix) and 0.01 μg of Mg (NO3)2 as a modifier of the matrix. The determinations were performed using a graphite furnace equipped with the correction system of the Zeeman effect. For the determination of the metal, tubes of pyrolytic graphite coated with THGA were used (Perkin-Elmer) with an integrated “vov-type platform” system. A standard solution of platinum in 2.5% HNO3 (Spectrascan) was used as a mother solution for the construction of a calibration curve with three points of reference. Each determination was performed independently, in triplicate (11).

DU145 = tested on: DU145
Protocol: as §1

HUH-7 = tested on: HUH-7
Protocol: as §1

MCF-7 = tested on: MCF-7
Protocol: as §1

A375 = tested on: A375
Protocol: as §1

Molecule	Pt in the culture medium (A2780)	Pt in the culture medium (DU145)	Pt in the culture medium (HUH-7)	Pt in the culture medium (MCF-7)	Pt in the culture medium (A375)
Lp-CC (AVCGTG)	2437.5 µg/L	2476 µg/L	2257 µg/L	2257 µg/L	
N.N.[Cl][Pt][Cl] [CC, cisplatin, reference compound]	21715 µg/L	18455 µg/L	18885 µg/L	29200 µg/L	22095 µg/L
